{"source": "PubChem BioAssay AID1671195 (Yale University, 2021)", "test": "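Knockdowns that increase or decrease uptake of fluorescent LDL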 (primary screen)", "system": "human Huh7 hepatoma cells", "reagents": "siRNA pool against human genes, 18 nM", "timing": "about 2 to 2.5 days of knockdown, then 8 h LDL uptake", "challenge": "DiI-labelled LDL at 30 µg/ml for 8 h, in lipoprotein-deficient serum medium", "measured": "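Fluorescent LDL signal imaged in cells, scaled to the plate median, robust z-score for each replicate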", "scale": "robust z-score: higher = more LDL uptake after knockdown", "active means": "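Active when two or more replicates show a robust z-score above 2 or below -2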", "note": "In all, the deposit lists about 22,000 reagents; shown is a part drawn at random. Of all reagents, about 1,510 (6.9%) got an active call. 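Active includes knockdowns raising or lowering LDL uptake; positive z-scores mean more uptake, negative mean less.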 A number with no mark means an inactive call."}
{"Target gene": "DGKG (diacylglycerol kinase gamma)", "robust z-score, replicate 1": 0.505, "robust z-score, replicate 2": -0.773, "robust z-score, replicate 3": -0.232}
{"Target gene": "FIZ1 (FLT3 interacting zinc finger 1)", "robust z-score, replicate 1": -0.54, "robust z-score, replicate 2": -1.08, "robust z-score, replicate 3": -0.894}
{"Target gene": "IMPA2 (inositol monophosphatase 2)", "robust z-score, replicate 1": -0.856, "robust z-score, replicate 2": -1.25, "robust z-score, replicate 3": -1.02}
{"Target gene": "MAPRE1 (microtubule associated protein RP/EB family member 1)", "robust z-score, replicate 1": -0.717, "robust z-score, replicate 2": 0.125, "robust z-score, replicate 3": -0.455}
{"Target gene": "FBXO45 (F-box protein 45)", "robust z-score, replicate 1": 1.71, "robust z-score, replicate 2": 1.32, "robust z-score, replicate 3": 0.166}
{"Target gene": "CGREF1 (cell growth regulator with EF-hand domain 1)", "robust z-score, replicate 1": 0.0582, "robust z-score, replicate 2": -0.0575, "robust z-score, replicate 3": 0.116}
{"Target gene": "ABCB4 (ATP binding cassette subfamily B member 4)", "robust z-score, replicate 1": -0.202, "robust z-score, replicate 2": 0.884, "robust z-score, replicate 3": -0.0434}
{"Target gene": "DNAAF3 (dynein axonemal assembly factor 3)", "robust z-score, replicate 1": -0.267, "robust z-score, replicate 2": -0.767, "robust z-score, replicate 3": -0.544}
{"Target gene": "NEUROG3 (neurogenin 3)", "robust z-score, replicate 1": 0.404, "robust z-score, replicate 2": 0.516, "robust z-score, replicate 3": 3.1}
{"Target gene": "HAUS4 (HAUS augmin like complex subunit 4)", "robust z-score, replicate 1": 0.688, "robust z-score, replicate 2": -0.416, "robust z-score, replicate 3": 0.425}
{"Target gene": "ZNF821 (zinc finger protein 821)", "robust z-score, replicate 1": 1.55, "robust z-score, replicate 2": 1.89, "robust z-score, replicate 3": 0.754}
{"Target gene": "LOC390358 (ret finger protein like 2 pseudogene)", "robust z-score, replicate 1": 0.838, "robust z-score, replicate 2": 0.785, "robust z-score, replicate 3": 0.628}

Just “robust z-score, replicate 1” (3 entries from above):
DGKG (diacylglycerol kinase gamma)	0.505
FIZ1 (FLT3 interacting zinc finger 1)	-0.54
IMPA2 (inositol monophosphatase 2)	-0.856

More results follow.
{"Target gene": "CAPZB (capping actin protein of muscle Z-line subunit beta)", "robust z-score, replicate 1": 0.859, "robust z-score, replicate 2": 0.505, "robust z-score, replicate 3": 0.0673}
{"Target gene": "SPATA7 (spermatogenesis associated 7)", "robust z-score, replicate 1": -0.0925, "robust z-score, replicate 2": -1.39, "robust z-score, replicate 3": -1.02}
{"Target gene": "LOC441496 (retired record)", "robust z-score, replicate 1": -1.83, "robust z-score, replicate 2": -2.13, "robust z-score, replicate 3": -1.84}
{"Target gene": "EDRF1 (erythroid differentiation regulatory factor 1)", "robust z-score, replicate 1": -1.22, "robust z-score, replicate 2": -0.0479, "robust z-score, replicate 3": 0.809}
{"Target gene": "TEDAR (terminal epidermal differentiation associated RNA)", "robust z-score, replicate 1": -0.643, "robust z-score, replicate 2": -0.543, "robust z-score, replicate 3": -0.126}
{"Target gene": "OSBPL1A (oxysterol binding protein like 1A)", "robust z-score, replicate 1": 0.541, "robust z-score, replicate 2": 1.19, "robust z-score, replicate 3": 0.152}
{"Target gene": "ESR2 (estrogen receptor 2)", "robust z-score, replicate 1": -0.935, "robust z-score, replicate 2": -2.08, "robust z-score, replicate 3": -0.944}
{"Target gene": "MSH5 (mutS homolog 5)", "robust z-score, replicate 1": "2.5 (active)", "robust z-score, replicate 2": 2.24, "robust z-score, replicate 3": 3.42}
{"Target gene": "SLC25A26", "robust z-score, replicate 1": "1.59 (active)", "robust z-score, replicate 2": 1.99, "robust z-score, replicate 3": 2.94}
{"Target gene": "HEPH (hephaestin)", "robust z-score, replicate 1": 0.543, "robust z-score, replicate 2": 1.12, "robust z-score, replicate 3": 1.06}
{"Target gene": "FAU (FAU ubiquitin like and ribosomal protein S30 fusion)", "robust z-score, replicate 1": -0.473, "robust z-score, replicate 2": 1.04, "robust z-score, replicate 3": 0.0224}
{"Target gene": "NDUFAF2 (NADH:ubiquinone oxidoreductase complex assembly factor 2)", "robust z-score, replicate 1": -0.631, "robust z-score, replicate 2": -1.25, "robust z-score, replicate 3": -0.638}
{"Target gene": "LOC441127 (retired record)", "robust z-score, replicate 1": 1.26, "robust z-score, replicate 2": 1.37, "robust z-score, replicate 3": 1.14}
{"Target gene": "LOC388716 (retired record)", "robust z-score, replicate 1": -0.104, "robust z-score, replicate 2": 0.0485, "robust z-score, replicate 3": -0.216}
{"Target gene": "C3orf85 (chromosome 3 open reading frame 85)", "robust z-score, replicate 1": 0.584, "robust z-score, replicate 2": 0.146, "robust z-score, replicate 3": 0.593}
{"Target gene": "WNT1 (Wnt family member 1)", "robust z-score, replicate 1": -0.0967, "robust z-score, replicate 2": 0.853, "robust z-score, replicate 3": -0.31}
{"Target gene": "EIPR1 (EARP complex and GARP complex interacting protein 1)", "robust z-score, replicate 1": 2.62, "robust z-score, replicate 2": -0.472, "robust z-score, replicate 3": 1.01}
{"Target gene": "LOC399919 (retired record)", "robust z-score, replicate 1": -0.818, "robust z-score, replicate 2": -0.427, "robust z-score, replicate 3": -0.31}
